PubChem BioAssay AID686938, Drosophila RNAi Screening Center, 2013

- Assay: 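Knock-downs reducing store-operated calcium influx in Drosophila cells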 (primary screen)
- Cell system: Drosophila S2R+ cells
- Reagent: long dsRNA against Drosophila genes, about 0.25 µg dsRNA per well, roughly 10,000 cells
- Duration: 5 days of knock-down before the calcium assay
- Challenge: thapsigargin (SERCA pump blocker) to empty calcium stores; entry signal taken 4 min after adding it
- Measured: 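Duplicate raw fluo-4 intensities per well from a plate reader, at rest and four minutes after thapsigargin emptied calcium stores; entry-to-rest ratio filled for only some wells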
- Direction: calcium entry signal: higher = stronger calcium signal after store depletion; resting calcium signal: higher = higher resting calcium signal
- Hit rule: 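Hit if the duplicate-averaged plate z-score for entry over resting signal is under −3; wells with weak total dye signal (Fmax z < −2) or more than 5 off-targets removed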
- Meaning of the calls: active = strongly reduced calcium entry; inactive = no strong reduction
In all, the deposit lists about 23,000 reagents; shown is an unselected part of those that have a named target and a result. Of all reagents, 75 (0.33%) are marked active. 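Raw plate signals without normalisation; calls rest on plate z-scores that were not deposited; ratio present for only 364 wells.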 Reagent sequences are not shown. Not stated in the record: the dose of the treatment.

The first 2 records, ahead of the listing:
gene,dsRNA,"calcium entry signal, replicate 1 (fluorescence units)","calcium entry signal, replicate 2 (fluorescence units)","resting calcium signal, replicate 1 (fluorescence units)","resting calcium signal, replicate 2 (fluorescence units)",call
CG5162,DRSC19935,4.20e7,3.41e7,2.20e7,1.60e7,inactive
Prosbeta5R2,DRSC01617,3.14e7,3.40e7,1.74e7,1.74e7,inactive

The list itself, from the first entry:
gene,dsRNA,"calcium entry signal, replicate 1 (fluorescence units)","calcium entry signal, replicate 2 (fluorescence units)","resting calcium signal, replicate 1 (fluorescence units)","resting calcium signal, replicate 2 (fluorescence units)",call
CG5162,DRSC19935,4.20e7,3.41e7,2.20e7,1.60e7,inactive
Prosbeta5R2,DRSC01617,3.14e7,3.40e7,1.74e7,1.74e7,inactive
CG30161,DRSC22141,2.79e7,4.80e7,1.37e7,2.25e7,inactive
Coq6,DRSC03040,4.24e7,,2.85e7,,inactive
CG10147,DRSC09706,3.60e7,6.12e7,1.69e7,2.60e7,inactive
Apc,DRSC14114,3.72e7,5.91e7,1.90e7,2.56e7,inactive
CG5107,DRSC15716,3.82e7,4.58e7,1.62e7,2.09e7,inactive
CG14961,DRSC08420,2.83e7,3.80e7,1.55e7,1.69e7,inactive
CG8840,DRSC00713,3.38e7,3.26e7,1.70e7,1.51e7,inactive
CG14275,DRSC02379,3.88e7,6.61e7,2.00e7,2.70e7,inactive
Dscam2,DRSC08869,5.38e7,4.67e7,2.72e7,2.30e7,inactive
Dscam2,DRSC10198,1.84e7,2.93e7,9.07e6,1.36e7,inactive
Dscam2,DRSC10285,1.35e7,2.31e7,9.05e6,1.50e7,inactive
Dscam2,DRSC11018,2.18e7,3.47e7,1.06e7,1.70e7,inactive
Dscam2,DRSC11019,1.93e7,3.35e7,1.01e7,1.55e7,inactive
Dscam2,DRSC22526,3.54e7,2.81e7,1.66e7,1.14e7,inactive
CG7329,DRSC03046,4.71e7,5.72e7,2.35e7,2.52e7,inactive
pan,DRSC17176,2.84e7,3.57e7,1.30e7,1.50e7,inactive
pan,DRSC22582,3.45e7,3.31e7,1.88e7,1.47e7,inactive
pcm,DRSC20361,3.33e7,4.15e7,1.55e7,1.56e7,inactive
cbt,DRSC00655,4.68e7,,2.54e7,,inactive
CG15293,DRSC01919,5.41e7,3.45e7,2.38e7,1.66e7,inactive
Ras64B,DRSC08689,4.17e7,4.01e7,2.02e7,1.84e7,inactive
Cks30A,DRSC03292,4.77e7,,2.01e7,,inactive
CG15861,DRSC04274,2.73e7,3.38e7,1.56e7,1.48e7,inactive
homer,DRSC03547,3.24e7,,1.79e7,,inactive
beat-VI,DRSC14474,3.53e7,5.34e7,1.75e7,2.19e7,inactive
beat-VI,DRSC14727,3.21e7,5.21e7,1.72e7,2.09e7,inactive
CG4053,DRSC15538,3.83e7,3.52e7,1.86e7,1.73e7,inactive
TBC1D23,DRSC00657,3.88e7,3.29e7,1.80e7,1.64e7,inactive
CG15128,DRSC06550,6.76e7,5.21e7,2.39e7,2.56e7,inactive
fw,DRSC20334,4.03e7,5.62e7,1.95e7,2.47e7,inactive
ppk15,DRSC14733,2.30e7,4.47e7,1.43e7,2.23e7,inactive
Alp8,DRSC04353,4.18e7,4.82e7,2.08e7,2.28e7,inactive
CG8541,DRSC10989,2.88e7,4.49e7,1.46e7,1.93e7,inactive
KdelR,DRSC03353,3.02e7,,2.03e7,,inactive
CG13708,DRSC08317,2.86e7,4.49e7,1.44e7,1.93e7,inactive
CG46301,DRSC01916,2.34e7,5.39e7,1.54e7,2.42e7,inactive
CG13928,DRSC08397,3.94e7,4.81e7,2.00e7,2.18e7,inactive
osk,DRSC17023,3.31e7,3.13e7,1.40e7,1.50e7,inactive
CG5246,DRSC15751,3.11e7,6.44e7,1.55e7,6.47e7,inactive
MCU,DRSC10339,2.92e7,4.68e7,1.28e7,2.07e7,inactive
Idgf3,DRSC03351,3.68e7,,1.80e7,,inactive
asRNA:CR31845,DRSC22257,1.97e7,3.22e7,1.04e7,1.54e7,inactive
asRNA:CR31845,DRSC23074,3.46e7,2.92e7,1.41e7,1.20e7,inactive
CG34176,DRSC00435,3.67e7,3.58e7,1.91e7,1.71e7,inactive
CG12219,DRSC17829,2.09e7,3.86e7,1.12e7,1.67e7,inactive
CG42748,DRSC03712,3.71e7,5.59e7,2.01e7,2.36e7,inactive
CG42748,DRSC03713,4.18e7,,2.11e7,,inactive
CG42748,DRSC03734,4.44e7,5.99e7,2.36e7,2.31e7,inactive
CG17572,DRSC02629,4.30e7,4.52e7,2.03e7,1.94e7,inactive
CG9517 (retired record),DRSC20192,2.94e7,3.19e7,1.59e7,1.49e7,inactive
CG9517 (retired record),DRSC20193,3.40e7,2.85e7,1.76e7,1.43e7,inactive
bw,DRSC04005,1.86e7,3.30e7,1.05e7,1.35e7,inactive
bw,DRSC04677,4.26e7,,2.24e7,,inactive
CG4630,DRSC06874,2.24e7,2.81e7,1.09e7,1.32e7,inactive
CG10514,DRSC14249,3.53e7,5.24e7,1.95e7,2.14e7,inactive
Vsx1,DRSC18349,2.36e7,3.70e7,1.22e7,2.19e7,inactive
Vsx1,DRSC18350,2.02e7,2.93e7,1.11e7,1.57e7,inactive
Vsx1,DRSC23004,4.11e7,3.83e7,1.68e7,1.53e7,inactive
